Reference: patent publication US5428053A, “1-aminoacetamidopyrroles and 1-amino acetamido-2-(substituted) pyrroles and related compounds” (priority 1993, dated 1995)
At least one compound was matched to its structure with a doubt left.

Biological target: NMDA receptor
Experiment: Stimulation of [3H]TCP binding by NMDA in extensively washed rat cortical membranes
Conditions: read-out: increase of the specific binding of [3H]TCP, EC50

## CN[C@H](CC(=O)O)C(=O)O [NMDA, N-methyl-D-aspartate]
  EC50: 3.1 µM
